According to the supplement of paper PMC12067093, “Discovery and optimisation of a covalent ligand for TRIM25 and its application to targeted protein ubiquitination” (Chemical Science, 2025):
Some of the results follow.

The chains behind the UniProt entries cited, without tags or fusion partners. Where a name states a change or a piece, a line headed by the entry shows the natural chain unless it says otherwise.
UniProt P08133: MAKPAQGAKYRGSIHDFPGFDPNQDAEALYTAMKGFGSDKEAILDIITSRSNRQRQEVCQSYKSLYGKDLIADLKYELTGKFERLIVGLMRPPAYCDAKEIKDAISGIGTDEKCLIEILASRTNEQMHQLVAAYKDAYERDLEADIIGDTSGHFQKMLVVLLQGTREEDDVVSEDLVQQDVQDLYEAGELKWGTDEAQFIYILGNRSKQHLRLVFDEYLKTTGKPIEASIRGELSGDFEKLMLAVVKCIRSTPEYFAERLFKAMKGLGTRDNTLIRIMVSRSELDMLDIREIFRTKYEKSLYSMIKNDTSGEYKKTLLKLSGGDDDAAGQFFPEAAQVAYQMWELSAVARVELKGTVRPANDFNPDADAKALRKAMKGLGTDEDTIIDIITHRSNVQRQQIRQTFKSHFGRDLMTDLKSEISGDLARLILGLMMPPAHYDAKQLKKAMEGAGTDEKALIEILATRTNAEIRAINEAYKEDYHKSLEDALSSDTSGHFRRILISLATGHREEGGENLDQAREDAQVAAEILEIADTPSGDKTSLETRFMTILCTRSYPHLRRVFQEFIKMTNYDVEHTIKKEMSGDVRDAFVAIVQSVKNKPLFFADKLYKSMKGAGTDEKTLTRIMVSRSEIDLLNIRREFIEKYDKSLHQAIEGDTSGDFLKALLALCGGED
UniProt Q6NXT1: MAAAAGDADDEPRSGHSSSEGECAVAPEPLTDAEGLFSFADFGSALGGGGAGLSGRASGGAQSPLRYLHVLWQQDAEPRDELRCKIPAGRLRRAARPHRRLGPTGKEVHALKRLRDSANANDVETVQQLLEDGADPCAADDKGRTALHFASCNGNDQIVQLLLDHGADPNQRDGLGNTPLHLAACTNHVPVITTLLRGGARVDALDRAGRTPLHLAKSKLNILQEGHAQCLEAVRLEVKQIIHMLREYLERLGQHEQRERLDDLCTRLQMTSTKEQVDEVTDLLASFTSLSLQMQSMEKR
UniProt Q9HDC9: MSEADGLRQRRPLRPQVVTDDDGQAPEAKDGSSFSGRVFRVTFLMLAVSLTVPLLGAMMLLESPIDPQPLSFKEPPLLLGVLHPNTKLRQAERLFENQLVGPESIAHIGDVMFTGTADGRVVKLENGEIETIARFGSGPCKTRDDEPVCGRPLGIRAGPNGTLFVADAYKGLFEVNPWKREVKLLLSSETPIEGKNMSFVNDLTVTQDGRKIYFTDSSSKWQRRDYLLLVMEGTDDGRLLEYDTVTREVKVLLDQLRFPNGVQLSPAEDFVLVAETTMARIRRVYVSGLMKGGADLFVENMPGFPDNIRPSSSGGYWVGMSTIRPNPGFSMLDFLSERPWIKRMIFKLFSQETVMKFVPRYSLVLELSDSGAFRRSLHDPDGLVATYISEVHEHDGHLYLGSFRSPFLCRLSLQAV
UniProt Q92688: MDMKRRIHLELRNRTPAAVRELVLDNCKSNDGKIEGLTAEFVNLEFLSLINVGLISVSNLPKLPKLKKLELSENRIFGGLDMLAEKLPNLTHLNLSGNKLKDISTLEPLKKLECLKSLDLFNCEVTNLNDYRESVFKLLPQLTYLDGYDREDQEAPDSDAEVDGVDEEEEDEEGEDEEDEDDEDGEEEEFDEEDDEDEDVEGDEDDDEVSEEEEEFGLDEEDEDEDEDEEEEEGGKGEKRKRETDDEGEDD
UniProt O14617: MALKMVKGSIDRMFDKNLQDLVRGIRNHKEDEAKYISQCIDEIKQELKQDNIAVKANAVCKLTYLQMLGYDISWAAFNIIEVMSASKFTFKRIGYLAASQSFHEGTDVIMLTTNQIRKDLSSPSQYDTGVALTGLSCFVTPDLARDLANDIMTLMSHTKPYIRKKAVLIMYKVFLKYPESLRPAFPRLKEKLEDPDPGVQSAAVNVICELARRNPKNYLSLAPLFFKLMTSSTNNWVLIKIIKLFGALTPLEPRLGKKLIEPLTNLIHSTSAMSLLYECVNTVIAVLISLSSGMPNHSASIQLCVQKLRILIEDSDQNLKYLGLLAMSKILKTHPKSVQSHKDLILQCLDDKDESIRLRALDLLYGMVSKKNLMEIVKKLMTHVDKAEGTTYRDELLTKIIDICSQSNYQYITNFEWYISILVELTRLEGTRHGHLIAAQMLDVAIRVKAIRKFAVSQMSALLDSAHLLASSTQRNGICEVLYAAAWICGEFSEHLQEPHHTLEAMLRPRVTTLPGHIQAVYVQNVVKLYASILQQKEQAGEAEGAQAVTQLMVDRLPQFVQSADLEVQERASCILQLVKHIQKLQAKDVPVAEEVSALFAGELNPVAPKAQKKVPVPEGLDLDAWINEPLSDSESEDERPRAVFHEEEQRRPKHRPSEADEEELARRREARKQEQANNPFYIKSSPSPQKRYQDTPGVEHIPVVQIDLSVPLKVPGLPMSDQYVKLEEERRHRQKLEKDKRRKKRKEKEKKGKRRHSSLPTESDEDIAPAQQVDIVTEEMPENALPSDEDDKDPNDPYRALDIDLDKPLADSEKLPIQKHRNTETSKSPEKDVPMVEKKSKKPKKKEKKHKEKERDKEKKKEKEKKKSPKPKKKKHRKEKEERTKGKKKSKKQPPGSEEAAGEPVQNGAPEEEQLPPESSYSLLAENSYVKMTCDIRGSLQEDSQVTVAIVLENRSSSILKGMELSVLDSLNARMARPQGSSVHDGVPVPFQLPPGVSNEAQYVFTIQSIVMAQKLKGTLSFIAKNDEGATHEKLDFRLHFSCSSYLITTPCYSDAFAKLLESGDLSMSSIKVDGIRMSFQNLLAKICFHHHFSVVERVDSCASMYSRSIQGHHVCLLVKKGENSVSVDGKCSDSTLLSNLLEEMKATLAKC
UniProt P20073: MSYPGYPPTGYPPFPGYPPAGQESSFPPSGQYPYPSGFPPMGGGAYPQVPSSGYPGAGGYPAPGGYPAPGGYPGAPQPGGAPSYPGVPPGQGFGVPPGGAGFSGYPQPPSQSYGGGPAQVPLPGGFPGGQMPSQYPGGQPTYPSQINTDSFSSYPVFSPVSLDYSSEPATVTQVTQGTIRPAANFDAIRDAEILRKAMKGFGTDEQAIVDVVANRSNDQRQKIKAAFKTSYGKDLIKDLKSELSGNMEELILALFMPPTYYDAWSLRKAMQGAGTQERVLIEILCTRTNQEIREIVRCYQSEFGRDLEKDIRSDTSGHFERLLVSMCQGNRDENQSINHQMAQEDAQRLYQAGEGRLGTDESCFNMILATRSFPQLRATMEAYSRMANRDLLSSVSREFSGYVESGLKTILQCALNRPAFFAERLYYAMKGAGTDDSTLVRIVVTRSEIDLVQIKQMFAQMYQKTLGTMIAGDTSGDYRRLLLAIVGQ
UniProt Q9NQW6: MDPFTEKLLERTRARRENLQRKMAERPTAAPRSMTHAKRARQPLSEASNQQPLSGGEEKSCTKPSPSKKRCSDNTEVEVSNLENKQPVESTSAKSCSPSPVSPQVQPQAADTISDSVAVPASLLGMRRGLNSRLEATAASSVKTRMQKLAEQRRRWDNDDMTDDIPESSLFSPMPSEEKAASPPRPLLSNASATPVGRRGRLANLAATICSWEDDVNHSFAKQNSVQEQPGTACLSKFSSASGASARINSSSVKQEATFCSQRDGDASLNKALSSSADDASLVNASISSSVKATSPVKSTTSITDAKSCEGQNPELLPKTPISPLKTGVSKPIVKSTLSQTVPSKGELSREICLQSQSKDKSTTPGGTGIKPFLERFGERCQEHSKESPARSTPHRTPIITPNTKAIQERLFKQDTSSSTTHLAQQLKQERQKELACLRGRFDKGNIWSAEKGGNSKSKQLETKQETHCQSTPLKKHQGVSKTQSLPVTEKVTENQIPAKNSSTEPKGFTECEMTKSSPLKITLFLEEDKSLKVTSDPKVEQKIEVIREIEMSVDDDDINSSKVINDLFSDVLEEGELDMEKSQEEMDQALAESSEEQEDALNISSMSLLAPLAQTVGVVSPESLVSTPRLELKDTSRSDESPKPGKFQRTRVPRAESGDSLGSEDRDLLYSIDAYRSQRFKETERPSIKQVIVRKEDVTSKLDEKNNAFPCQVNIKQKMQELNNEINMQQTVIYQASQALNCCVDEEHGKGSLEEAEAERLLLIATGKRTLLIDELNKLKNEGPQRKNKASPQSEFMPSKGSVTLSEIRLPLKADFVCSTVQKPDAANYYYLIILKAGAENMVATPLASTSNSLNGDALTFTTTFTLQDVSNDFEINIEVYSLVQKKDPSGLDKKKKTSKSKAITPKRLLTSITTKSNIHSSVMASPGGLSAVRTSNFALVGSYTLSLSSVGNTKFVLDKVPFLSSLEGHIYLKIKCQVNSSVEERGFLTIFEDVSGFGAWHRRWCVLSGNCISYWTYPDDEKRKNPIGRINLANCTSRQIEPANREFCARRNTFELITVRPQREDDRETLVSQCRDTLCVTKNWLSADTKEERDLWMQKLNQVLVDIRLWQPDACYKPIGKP
UniProt Q8N8A2: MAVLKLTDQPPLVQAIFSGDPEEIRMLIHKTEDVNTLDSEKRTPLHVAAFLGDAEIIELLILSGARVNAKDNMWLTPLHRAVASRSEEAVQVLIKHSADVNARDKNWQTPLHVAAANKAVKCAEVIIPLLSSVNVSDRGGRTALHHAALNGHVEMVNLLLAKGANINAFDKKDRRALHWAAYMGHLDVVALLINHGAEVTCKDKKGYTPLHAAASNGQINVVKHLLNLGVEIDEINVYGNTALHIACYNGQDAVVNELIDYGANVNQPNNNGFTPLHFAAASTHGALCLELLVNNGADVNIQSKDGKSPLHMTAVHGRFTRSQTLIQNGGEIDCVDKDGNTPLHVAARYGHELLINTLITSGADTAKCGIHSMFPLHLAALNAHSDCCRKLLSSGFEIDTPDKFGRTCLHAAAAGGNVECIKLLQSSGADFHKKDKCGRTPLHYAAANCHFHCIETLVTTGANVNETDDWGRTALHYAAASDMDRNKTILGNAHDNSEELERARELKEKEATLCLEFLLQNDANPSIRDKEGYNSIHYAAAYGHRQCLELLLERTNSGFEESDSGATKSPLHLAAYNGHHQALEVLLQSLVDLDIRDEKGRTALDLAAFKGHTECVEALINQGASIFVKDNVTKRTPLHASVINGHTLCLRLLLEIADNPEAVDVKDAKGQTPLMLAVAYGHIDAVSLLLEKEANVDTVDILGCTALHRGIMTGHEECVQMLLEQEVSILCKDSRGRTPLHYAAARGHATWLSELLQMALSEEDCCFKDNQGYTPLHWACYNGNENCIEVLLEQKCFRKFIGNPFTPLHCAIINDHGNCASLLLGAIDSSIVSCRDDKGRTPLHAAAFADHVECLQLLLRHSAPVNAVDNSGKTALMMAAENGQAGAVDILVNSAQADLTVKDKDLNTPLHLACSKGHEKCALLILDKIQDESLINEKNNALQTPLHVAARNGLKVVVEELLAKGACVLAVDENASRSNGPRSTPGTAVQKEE
UniProt O75843: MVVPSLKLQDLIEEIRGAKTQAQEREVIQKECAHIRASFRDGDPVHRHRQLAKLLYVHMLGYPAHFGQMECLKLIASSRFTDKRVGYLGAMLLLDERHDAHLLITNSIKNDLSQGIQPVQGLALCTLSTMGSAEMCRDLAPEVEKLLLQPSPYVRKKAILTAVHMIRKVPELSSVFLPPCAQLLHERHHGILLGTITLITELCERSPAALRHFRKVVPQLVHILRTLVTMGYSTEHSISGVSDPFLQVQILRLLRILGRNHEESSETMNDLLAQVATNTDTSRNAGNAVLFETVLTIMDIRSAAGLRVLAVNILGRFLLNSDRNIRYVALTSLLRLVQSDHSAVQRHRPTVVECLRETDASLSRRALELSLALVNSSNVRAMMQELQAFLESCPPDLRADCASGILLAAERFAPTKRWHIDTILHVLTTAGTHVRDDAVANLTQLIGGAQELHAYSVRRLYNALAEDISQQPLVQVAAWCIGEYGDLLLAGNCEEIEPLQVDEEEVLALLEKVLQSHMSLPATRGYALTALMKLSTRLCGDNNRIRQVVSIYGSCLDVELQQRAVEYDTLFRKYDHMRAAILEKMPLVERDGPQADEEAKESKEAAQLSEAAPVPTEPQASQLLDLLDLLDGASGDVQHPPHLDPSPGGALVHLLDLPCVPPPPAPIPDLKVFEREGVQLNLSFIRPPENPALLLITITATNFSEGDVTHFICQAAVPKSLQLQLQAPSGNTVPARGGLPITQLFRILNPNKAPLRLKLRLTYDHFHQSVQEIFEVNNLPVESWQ

Compound: Cc1cc(ccc1-c1ccccc1)C(=O)N1CCCN(CC1)C(=O)CCl [compound 10]
Test: probe-labelled cysteine peptide fold change vs DMSO (competition) (log2 fold change); higher = less target engagement (more negative = stronger competition)
Conditions: THP-1, incubation time: 4 h
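Also: competitive profiling in live THP-1 cells: cysteine peptides tagged with an iodoacetamide desthiobiotin (IA-DTB) probe, intensity after compound treatment relative to DMSO-treated cells.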

ANKRD17_O75179_210_RLTSSVSCALDEAAAALTR (UniProt O75179)
probe-labelled cysteine peptide fold change (10 µM): -0.0975
probe-labelled cysteine peptide fold change (50 µM): -0.305

ANXA6_P08133_96_LIVGLMRPPAYCDAK (UniProt P08133)
probe-labelled cysteine peptide fold change (10 µM): 0.00975
probe-labelled cysteine peptide fold change (50 µM): 0.25

ANKLE2_Q86XL3_844_LDQDVLAALECADVDPHQFPAVHR (UniProt Q86XL3)
probe-labelled cysteine peptide fold change (10 µM): -0.0526
probe-labelled cysteine peptide fold change (50 µM): 0.328

ANKRD54_Q6NXT1_185_DGLGNTPLHLAACTNHVPVITTLLR (UniProt Q6NXT1)
probe-labelled cysteine peptide fold change (10 µM): 0.177
probe-labelled cysteine peptide fold change (50 µM): 0.0261

ANKLE1_Q8NAG6_124_GLELLLSQGADPALRDQDGLRPLDLALQQGHLECAR (UniProt Q8NAG6)
probe-labelled cysteine peptide fold change (10 µM): 0.169
probe-labelled cysteine peptide fold change (50 µM): 0.0214

APMAP_Q9HDC9_140_FGSGPCK (UniProt Q9HDC9)
probe-labelled cysteine peptide fold change (10 µM): -0.158
probe-labelled cysteine peptide fold change (50 µM): 0.0996

ANP32B_Q92688_27_ELVLDNCK (UniProt Q92688)
probe-labelled cysteine peptide fold change (10 µM): -0.0885
probe-labelled cysteine peptide fold change (50 µM): 0.13

APOBEC3G_Q9HC16_356_HCWDTFVDHQGCPFQPWDGLDEHSQDLSGR (UniProt Q9HC16)
probe-labelled cysteine peptide fold change (10 µM): -0.032
probe-labelled cysteine peptide fold change (50 µM): -0.101

APOBR_Q0VD83_895_CGDYHPEGEAPR (UniProt Q0VD83)
probe-labelled cysteine peptide fold change (10 µM): -0.0609
probe-labelled cysteine peptide fold change (50 µM): 0.0559

AP3D1_O14617_935_MTCDIR (UniProt O14617)
probe-labelled cysteine peptide fold change (10 µM): -0.00118
probe-labelled cysteine peptide fold change (50 µM): 0.0604

ANXA7_P20073_298_CYQSEFGR (UniProt P20073)
probe-labelled cysteine peptide fold change (10 µM): 0.106
probe-labelled cysteine peptide fold change (50 µM): 0.0364

ANLN_Q9NQW6_469_QETHCQSTPLK (UniProt Q9NQW6)
probe-labelled cysteine peptide fold change (10 µM): 0.055
probe-labelled cysteine peptide fold change (50 µM): 0.0109

ANKRD44_Q8N8A2_615_GHTECVEALINQGASIFVK (UniProt Q8N8A2)
probe-labelled cysteine peptide fold change (10 µM): -0.0324
probe-labelled cysteine peptide fold change (50 µM): -0.665

AP1G2_O75843_401_ADCASGILLAAER (UniProt O75843)
probe-labelled cysteine peptide fold change (10 µM): 0.141
probe-labelled cysteine peptide fold change (50 µM): 0.148
